Laboratory results: US20050277625A1, “Estriol and estetrol prodrugs” (priority 2004, published 2005)
At least one structure is not confirmed: it was looked up by name or label, or the drawing left a doubt.

Tested on: uterus and vagina weight
Test: Interaction of estrogens with progesterone in uterus and vagina of ovariectomized guinea pigs
Assay type: in vivo
Details: OVX guinea pigs, 7 days s.c., with 3.0 mg progesterone per animal per day
From the text: Adult guinea pigs were ovariectomized and treated for 2 weeks after this operation over 7 days with estradiol or estriol over a large dose range. […] The effects of this treatment on the genital organs was raised on the 8th test day.

Q: How did the “uterotropic actions in combination with progesterone” value turn out when `C[C@]12CC[C@@H]3c4ccc(O)cc4CC[C@H]3[C@@H]1CC[C@@H]2O` [estradiol] was run?
A: Progesterone weakens the uterotropic actions
